Data published in article PMC3967990.

The chains behind the UniProt entries cited, without tags or fusion partners.
UniProt P08238: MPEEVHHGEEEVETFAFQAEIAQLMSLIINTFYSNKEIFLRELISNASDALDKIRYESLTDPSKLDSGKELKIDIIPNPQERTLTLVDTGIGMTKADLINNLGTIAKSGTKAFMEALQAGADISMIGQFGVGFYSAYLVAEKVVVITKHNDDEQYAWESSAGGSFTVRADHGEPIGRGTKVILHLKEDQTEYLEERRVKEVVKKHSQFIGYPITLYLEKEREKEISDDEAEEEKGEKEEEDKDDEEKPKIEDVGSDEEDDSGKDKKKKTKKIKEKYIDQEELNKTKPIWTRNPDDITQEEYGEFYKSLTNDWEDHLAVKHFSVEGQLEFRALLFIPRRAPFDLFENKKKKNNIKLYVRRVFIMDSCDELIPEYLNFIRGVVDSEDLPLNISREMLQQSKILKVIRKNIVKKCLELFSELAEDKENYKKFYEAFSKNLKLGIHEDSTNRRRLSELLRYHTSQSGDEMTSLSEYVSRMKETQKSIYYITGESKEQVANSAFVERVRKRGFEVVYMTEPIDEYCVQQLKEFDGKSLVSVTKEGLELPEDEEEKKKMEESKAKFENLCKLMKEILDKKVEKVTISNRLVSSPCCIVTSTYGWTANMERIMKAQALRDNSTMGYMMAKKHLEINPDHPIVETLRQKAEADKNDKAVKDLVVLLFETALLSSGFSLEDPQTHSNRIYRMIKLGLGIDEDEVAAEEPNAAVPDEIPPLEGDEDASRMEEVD

How the values were obtained:
[1] = molecular target: T1, GSDMB-1-HA (Gasdermin B isoform 1, HA-tagged), stably expressed in MCF7 cells (human) (UniProt Q8TAX9); test: affinity purification with mass spectrometry; immunoprecipitation from MCF7-G1 and MCF7-G2 cell lines followed by mass spectrometry (MALDI peptide mass fingerprinting and MS/MS); detailed protocol in Protocol S1 and S2
T1 sequence: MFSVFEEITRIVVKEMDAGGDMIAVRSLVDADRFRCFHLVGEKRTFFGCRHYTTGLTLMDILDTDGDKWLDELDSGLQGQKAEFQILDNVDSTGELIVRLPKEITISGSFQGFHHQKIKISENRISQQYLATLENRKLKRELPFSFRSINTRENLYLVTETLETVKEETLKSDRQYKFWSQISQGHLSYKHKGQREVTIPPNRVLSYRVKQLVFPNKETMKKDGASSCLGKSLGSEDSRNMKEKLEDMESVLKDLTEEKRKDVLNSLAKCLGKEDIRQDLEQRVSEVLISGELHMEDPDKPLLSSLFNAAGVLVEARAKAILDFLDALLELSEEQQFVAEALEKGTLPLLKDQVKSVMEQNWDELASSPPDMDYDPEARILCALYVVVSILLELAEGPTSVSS

[2] = molecular target: T2, GSDMB-2-HA (Gasdermin B isoform 2, HA-tagged), stably expressed in MCF7 cells (human) (UniProt Q8TAX9); test: as above
T2 sequence: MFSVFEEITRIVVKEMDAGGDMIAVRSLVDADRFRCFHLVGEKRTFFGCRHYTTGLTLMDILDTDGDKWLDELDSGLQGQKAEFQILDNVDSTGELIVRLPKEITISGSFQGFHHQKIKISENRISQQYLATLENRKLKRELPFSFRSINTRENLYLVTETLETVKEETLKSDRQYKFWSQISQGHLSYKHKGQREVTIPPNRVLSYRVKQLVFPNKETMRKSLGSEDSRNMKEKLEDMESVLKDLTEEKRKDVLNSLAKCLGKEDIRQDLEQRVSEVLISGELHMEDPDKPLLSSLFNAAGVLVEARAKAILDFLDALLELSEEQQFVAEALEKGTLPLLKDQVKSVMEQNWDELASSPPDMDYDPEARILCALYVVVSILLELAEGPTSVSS

binding [1]: binds
binding [2]: binds
Substance: Heat shock protein 90 β (Hsp90β), endogenous in MCF7 cells (from UniProt P08238 1-724)

Results are given in words; binding and its absence hold for the method and conditions named. In cells and extracts the contact can be indirect. These calls come from enrichment with a bait or labelling near it, and not all partners need be listed. Tags and fused reporters may be left off the sequences shown.
